The list is a part of this screen's results and no random one: it gathers tests that were run many times, whatever their T/C, doses with no T/C, and many T/C values between a quarter and a half above the control. Other doses and runs of a compound stand elsewhere. T/C is the treated group as % of the vehicle group. Some entries give survivors of the animals treated and no T/C: the source holds a T/C of zero for them, seemingly a mark for toxic or unscored doses. Some survivor counts are full or nearly so, which does not show that the dose was tolerated: survival well below the control is almost never listed, so the zero probably covers shortened survival too. Survivors were counted at the toxicity check, usually on the fifth day, unless a day is given; later deaths do not show. Schedules are NCI's codes, read here as Q, the interval in days (D) or hours (H), X, the number of doses. Marks such as (2×) say how often a value occurs here. Some entries were tested several times; the values are given in rising order. For survival time, this PubChem deposit counts one and a half times the control or more as active, and values a quarter to a half above the control carry no call in these data; other NCI protocols may use other cut-offs.
Test system: L1210 leukemia ip in BDF1 mice, survival T/C
Assay: NCI In Vivo Anticancer Drug Screen. Data for tumor model L1210 Leukemia (intraperitoneal) in B6D2F1 (BDF1) mice
Conditions: T/C endpoint: mean survival time, higher T/C = longer survival
[1] = dose: 100.0 mg/kg/injection, schedule: Q01DX009 (ip), vehicle: Klucel (hydroxypropylcellulose) (HPC)
[2] = dose: 200.0 mg/kg/injection, schedule: Q01DX009 (ip), vehicle: Klucel (hydroxypropylcellulose) (HPC)
[3] = dose: 400.0 mg/kg/injection, schedule: Q04DX003 (ip), vehicle: Klucel (hydroxypropylcellulose) (HPC)
[4] = dose: 150.0 mg/kg/injection, schedule: Q01DX001 (ip), vehicle: saline
[5] = dose: 300.0 mg/kg/injection, schedule: Q01DX001 (ip), vehicle: saline
[6] = dose: 200.0 mg/kg/injection, schedule: Q01DX009 (ip), vehicle: saline with Tween-80
[7] = dose: 400.0 mg/kg/injection, schedule: Q01DX009 (ip), vehicle: saline with Tween-80
[8] = dose: 100.0 mg/kg/injection, schedule: Q04DX003 (ip), vehicle: Klucel (hydroxypropylcellulose) (HPC)
[9] = dose: 200.0 mg/kg/injection, schedule: Q04DX003 (ip), vehicle: Klucel (hydroxypropylcellulose) (HPC)
[10] = dose: 400.0 mg/kg/injection, schedule: Q01DX009 (ip), vehicle: Klucel (hydroxypropylcellulose) (HPC)
[11] = dose: 100.0 mg/kg/injection, schedule: Q04DX002 (ip), vehicle: saline with Tween-80
[12] = dose: 200.0 mg/kg/injection, schedule: Q04DX003 (ip), vehicle: saline
[13] = dose: 400.0 mg/kg/injection, schedule: Q04DX003 (ip), vehicle: saline
[14] = dose: 400.0 mg/kg/injection, schedule: Q04DX002 (ip), vehicle: Klucel (hydroxypropylcellulose) (HPC)
[15] = dose: 50.0 mg/kg/injection, schedule: Q01DX009 (ip), vehicle: saline with Tween-80
[16] = dose: 100.0 mg/kg/injection, schedule: Q01DX009 (ip), vehicle: saline with Tween-80
[17] = dose: 100.0 mg/kg/injection, schedule: Q04DX003 (ip), vehicle: saline with Tween-80
[18] = dose: 200.0 mg/kg/injection, schedule: Q04DX003 (ip), vehicle: saline with Tween-80
[19] = dose: 400.0 mg/kg/injection, schedule: Q04DX003 (ip), vehicle: saline with Tween-80

Cn1nc(CC(=O)O)c(C(N)=O)c1N
survivor count [1]: 2 of 3

CCCCCCCCCCCCC(CC(=O)O)C(=O)N(CCO)CCO (stereo unspecified)
survivor count (dose: 100.0 mg/kg/injection, schedule: Q01DX001 (ip), vehicle: saline): 0 of 3 | survivor count (dose: 400.0 mg/kg/injection, schedule: Q01DX001 (ip), vehicle: saline): 0 of 3

O=S(=O)(OCC#CCOS(=O)(=O)c1cccs1)c1cccs1
survivor count (dose: 50.0 mg/kg/injection, schedule: Q01DX009 (ip), vehicle: Klucel (hydroxypropylcellulose) (HPC)): 4 of 6 | survivor count [1]: 0 of 6 | survivor count [2]: 1 of 6 | survivor count [3]: 6 of 6

CCOc1c(C(=O)O)cnc2ccccc12
survivor count [4]: 3 of 6 | survivor count [5]: 0 of 6

O=S1OCC=CCO1
survivor count (dose: 400.0 mg/kg/injection, schedule: Q01DX001 (ip), vehicle: carboxymethylcellulose (CMC)): 1 of 4

CCCCCCCC(=O)[O][Hg][c]1ccccc1
survivor count (dose: 75.0 mg/kg/injection, schedule: Q01DX001 (ip), vehicle: other): 1 of 6 | survivor count (dose: 150.0 mg/kg/injection, schedule: Q01DX001 (ip), vehicle: other): 0 of 6 | survivor count (dose: 300.0 mg/kg/injection, schedule: Q01DX001 (ip), vehicle: other): 0 of 6

O=[N+]([O-])c1ccc(S(=O)(=O)CCCl)cc1
survivor count [2]: 0 of 6

O=Cc1c2ccccc2cc2ccccc12
T/C (dose: 45.0 mg/kg/injection, schedule: Q01DX015 (ip), vehicle: saline): 139 % of control

CC(C)(C)OC(=O)NCCCCC(NC(=O)OCc1ccccc1)C(=O)O (stereo unspecified)
survivor count [6]: 3 of 6 | survivor count [7]: 0 of 6

[Cl][Pt][Cl].[NH-]CCN1CC1
survivor count (dose: 100.0 mg/kg/injection, schedule: Q01DX001 (ip), vehicle: Klucel (hydroxypropylcellulose) (HPC)): 0 of 6 | survivor count (dose: 200.0 mg/kg/injection, schedule: Q01DX001 (ip), vehicle: Klucel (hydroxypropylcellulose) (HPC)): 0 of 6 | survivor count (dose: 400.0 mg/kg/injection, schedule: Q01DX001 (ip), vehicle: Klucel (hydroxypropylcellulose) (HPC)): 0 of 6

NC1=Nc2cccc3cccc(c23)N1
survivor count [8]: 2 of 6 | survivor count [9]: 0 of 6 | survivor count [3]: 0 of 6

O=S(=O)(F)c1cc(Cl)c(O)cc1Cl
survivor count [10]: 6 of 6

CCCCC[CH2][Sn]([I])([CH2]C)[CH2]C
survivor count (dose: 6.25 mg/kg/injection, schedule: Q01DX009 (ip), vehicle: saline): 1 of 6 | survivor count [11]: 0 of 3 | survivor count (dose: 200.0 mg/kg/injection, schedule: Q04DX002 (ip), vehicle: saline with Tween-80): 0 of 3 | survivor count (dose: 400.0 mg/kg/injection, schedule: Q04DX002 (ip), vehicle: saline with Tween-80): 0 of 3

CCCCCCCC/C=C\CCCCCCCCSC#N
survivor count [11]: 3 of 3 | survivor count [7]: 3 of 3

CC(C)C([NH-])=O.CC(C)C([NH-])=O.[Cl][Pt+2][Cl]
survivor count (dose: 100.0 mg/kg/injection, schedule: Q01DX009 (ip), vehicle: saline): 0 of 6 | survivor count [12]: 0 of 6 | survivor count [13]: 0 of 6

Cc1c([N+](=O)[O-])cc(C(C)(C)C)c(OC(=O)C(C)(C)C)c1[N+](=O)[O-]
survivor count (dose: 100.0 mg/kg/injection, schedule: Q04DX002 (ip), vehicle: Klucel (hydroxypropylcellulose) (HPC)): 2 of 3 | survivor count (dose: 200.0 mg/kg/injection, schedule: Q04DX002 (ip), vehicle: Klucel (hydroxypropylcellulose) (HPC)): 1 of 3 | survivor count [14]: 0 of 3

CC1=CC2C(C(C)C)CC1C1C(=O)OC(=O)C21 (stereo unspecified)
survivor count [14]: 0 of 3

O/N=C/c1c(O)cccc1Cl
survivor count (dose: 300.0 mg/kg/injection, schedule: Q01DX001 (ip), vehicle: acetone): 1 of 6

CC(=O)c1c(O)c(Br)c(C)oc1=O (tested in a mixture with another compound)
survivor count [15]: 2 of 3 | survivor count [16]: 3 of 3 | survivor count [6]: 0 of 3

CCOC(=O)/C=C/N1CC1C (stereo unspecified)
survivor count [8]: 6 of 6 (2×) | survivor count [9]: 0 of 6 and 1 of 6 | survivor count [3]: 0 of 6 (2×)

c1ccc(N2CCNCC2)nc1
survivor count (dose: 75.0 mg/kg/injection, schedule: Q01DX001 (ip), vehicle: saline): 2 of 6 | survivor count [4]: 0 of 6 | survivor count [5]: 0 of 6

C/C=C/C[P+](Cc1cccc(C)c1)(c1ccccc1)c1ccccc1
survivor count (dose: 12.5 mg/kg/injection, schedule: Q01DX009 (ip), vehicle: saline with Tween-80): 0 of 3 | survivor count (dose: 25.0 mg/kg/injection, schedule: Q01DX009 (ip), vehicle: saline with Tween-80): 1 of 3 | survivor count [15]: 0 of 3 | survivor count [16]: 0 of 3 | survivor count [6]: 0 of 3

CSC1=NCCCC1
survivor count [5]: 2 of 6

O=C1CN(CN2CCCCC2)C(=O)CN1CN1CCCCC1
survivor count [10]: 2 of 6

COc1cc(N=C(N)N=C(N)N)c2ncccc2c1
survivor count (dose: 150.0 mg/kg/injection, schedule: Q01DX001 (ip), vehicle: carboxymethylcellulose (CMC)): 0 of 6 | survivor count (dose: 300.0 mg/kg/injection, schedule: Q01DX001 (ip), vehicle: carboxymethylcellulose (CMC)): 0 of 6

CC(O)C[As](=O)(O)c1ccccc1Cl (stereo unspecified)
survivor count (dose: 25.0 mg/kg/injection, schedule: Q04DX003 (ip), vehicle: saline with Tween-80): 3 of 6 | survivor count (dose: 50.0 mg/kg/injection, schedule: Q04DX003 (ip), vehicle: saline with Tween-80): 0 of 6 | survivor count [17]: 0 of 6 and 1 of 6 | survivor count [18]: 0 of 6 | survivor count [19]: 0 of 6

O=C(CCCl)N1CCN(C(=O)CCCl)CC1
T/C (dose: 176.0 mg/kg/injection, schedule: Q01DX009 (ip), vehicle: saline): 126 % of control | T/C (dose: 264.0 mg/kg/injection, schedule: Q01DX009 (ip), vehicle: saline): 130 % of control

CCCCCCCCNC12CC3CC(CC(C3)C1)C2
survivor count (dose: 50.0 mg/kg/injection, schedule: Q04DX003 (ip), vehicle: saline): 1 of 6 | survivor count (dose: 100.0 mg/kg/injection, schedule: Q04DX003 (ip), vehicle: saline): 0 of 6 | survivor count [12]: 0 of 6 | survivor count [13]: 0 of 6

CNCCCCOC
survivor count (dose: 400.0 mg/kg/injection, schedule: Q04DX002 (ip), vehicle: saline): 1 of 3

[Cl][Ni].[NH-]C(Cc1ccccc1)C(=O)O (stereo unspecified)
survivor count [17]: 0 of 3 | survivor count [18]: 0 of 3 | survivor count [19]: 0 of 3

Reference: PubChem BioAssay AID248 (DTP/NCI, 2004)
